# From the supplement of paper PMC6411743
# Chains of the proteins cited; added tags and fusions are not shown. Lines headed by an entry give the natural chain unless they say otherwise; changes in a name come on top.
# UniProt Q8IZ83: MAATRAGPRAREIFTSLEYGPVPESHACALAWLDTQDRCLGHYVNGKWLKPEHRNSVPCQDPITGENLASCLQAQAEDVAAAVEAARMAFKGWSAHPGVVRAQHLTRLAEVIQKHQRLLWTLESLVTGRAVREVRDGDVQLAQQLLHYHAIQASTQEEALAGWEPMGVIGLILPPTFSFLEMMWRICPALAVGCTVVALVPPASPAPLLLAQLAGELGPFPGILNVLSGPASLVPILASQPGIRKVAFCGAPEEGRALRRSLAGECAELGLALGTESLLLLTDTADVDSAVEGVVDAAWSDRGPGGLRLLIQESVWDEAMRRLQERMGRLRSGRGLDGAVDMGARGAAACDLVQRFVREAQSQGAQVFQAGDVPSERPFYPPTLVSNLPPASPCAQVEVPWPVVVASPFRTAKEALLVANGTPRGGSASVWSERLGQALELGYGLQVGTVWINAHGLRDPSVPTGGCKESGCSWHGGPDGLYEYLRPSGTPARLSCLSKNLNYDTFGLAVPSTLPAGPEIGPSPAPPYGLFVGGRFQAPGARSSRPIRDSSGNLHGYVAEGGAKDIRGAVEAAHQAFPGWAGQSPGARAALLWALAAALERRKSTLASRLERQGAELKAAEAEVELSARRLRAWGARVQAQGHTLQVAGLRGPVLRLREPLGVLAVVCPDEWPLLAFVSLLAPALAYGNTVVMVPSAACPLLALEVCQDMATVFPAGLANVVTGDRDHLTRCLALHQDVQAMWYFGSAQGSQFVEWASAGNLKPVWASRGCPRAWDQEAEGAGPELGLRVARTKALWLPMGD
# UniProt Q86UE4: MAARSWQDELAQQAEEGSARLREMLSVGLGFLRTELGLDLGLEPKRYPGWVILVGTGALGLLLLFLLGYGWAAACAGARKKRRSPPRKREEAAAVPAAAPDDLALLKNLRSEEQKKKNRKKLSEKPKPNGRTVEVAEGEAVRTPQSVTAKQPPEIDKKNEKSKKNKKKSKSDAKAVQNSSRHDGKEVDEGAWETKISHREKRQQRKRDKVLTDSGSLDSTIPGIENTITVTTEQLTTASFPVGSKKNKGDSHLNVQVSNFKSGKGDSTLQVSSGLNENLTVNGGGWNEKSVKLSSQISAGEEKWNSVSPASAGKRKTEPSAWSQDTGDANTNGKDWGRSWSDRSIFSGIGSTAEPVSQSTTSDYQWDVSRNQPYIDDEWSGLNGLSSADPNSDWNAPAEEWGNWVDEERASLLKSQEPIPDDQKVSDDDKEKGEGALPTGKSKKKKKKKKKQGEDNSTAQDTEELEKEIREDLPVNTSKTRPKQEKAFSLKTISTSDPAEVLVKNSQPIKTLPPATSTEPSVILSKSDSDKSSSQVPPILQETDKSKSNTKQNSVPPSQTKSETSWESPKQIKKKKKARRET
# UniProt Q8IYR2: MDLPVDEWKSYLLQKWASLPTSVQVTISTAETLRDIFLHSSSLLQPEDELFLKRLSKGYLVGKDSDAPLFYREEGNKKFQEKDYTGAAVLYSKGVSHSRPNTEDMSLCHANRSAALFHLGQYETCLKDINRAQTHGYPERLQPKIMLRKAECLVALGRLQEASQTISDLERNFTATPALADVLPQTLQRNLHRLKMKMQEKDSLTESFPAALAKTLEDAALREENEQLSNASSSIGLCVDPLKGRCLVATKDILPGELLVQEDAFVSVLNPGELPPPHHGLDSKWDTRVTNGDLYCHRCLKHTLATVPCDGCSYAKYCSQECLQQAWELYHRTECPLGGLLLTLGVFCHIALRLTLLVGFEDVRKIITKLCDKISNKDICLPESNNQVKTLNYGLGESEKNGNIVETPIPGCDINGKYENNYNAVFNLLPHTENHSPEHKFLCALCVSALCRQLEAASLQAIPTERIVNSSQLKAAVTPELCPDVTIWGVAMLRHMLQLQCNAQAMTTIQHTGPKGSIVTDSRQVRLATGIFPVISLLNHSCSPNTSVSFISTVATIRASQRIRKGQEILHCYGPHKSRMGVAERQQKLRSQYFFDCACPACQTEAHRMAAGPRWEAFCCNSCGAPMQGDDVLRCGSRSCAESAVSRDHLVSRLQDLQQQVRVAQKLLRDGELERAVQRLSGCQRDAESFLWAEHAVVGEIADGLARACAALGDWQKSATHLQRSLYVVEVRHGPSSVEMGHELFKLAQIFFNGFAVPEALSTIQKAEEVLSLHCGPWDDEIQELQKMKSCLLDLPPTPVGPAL
# UniProt Q8NB90: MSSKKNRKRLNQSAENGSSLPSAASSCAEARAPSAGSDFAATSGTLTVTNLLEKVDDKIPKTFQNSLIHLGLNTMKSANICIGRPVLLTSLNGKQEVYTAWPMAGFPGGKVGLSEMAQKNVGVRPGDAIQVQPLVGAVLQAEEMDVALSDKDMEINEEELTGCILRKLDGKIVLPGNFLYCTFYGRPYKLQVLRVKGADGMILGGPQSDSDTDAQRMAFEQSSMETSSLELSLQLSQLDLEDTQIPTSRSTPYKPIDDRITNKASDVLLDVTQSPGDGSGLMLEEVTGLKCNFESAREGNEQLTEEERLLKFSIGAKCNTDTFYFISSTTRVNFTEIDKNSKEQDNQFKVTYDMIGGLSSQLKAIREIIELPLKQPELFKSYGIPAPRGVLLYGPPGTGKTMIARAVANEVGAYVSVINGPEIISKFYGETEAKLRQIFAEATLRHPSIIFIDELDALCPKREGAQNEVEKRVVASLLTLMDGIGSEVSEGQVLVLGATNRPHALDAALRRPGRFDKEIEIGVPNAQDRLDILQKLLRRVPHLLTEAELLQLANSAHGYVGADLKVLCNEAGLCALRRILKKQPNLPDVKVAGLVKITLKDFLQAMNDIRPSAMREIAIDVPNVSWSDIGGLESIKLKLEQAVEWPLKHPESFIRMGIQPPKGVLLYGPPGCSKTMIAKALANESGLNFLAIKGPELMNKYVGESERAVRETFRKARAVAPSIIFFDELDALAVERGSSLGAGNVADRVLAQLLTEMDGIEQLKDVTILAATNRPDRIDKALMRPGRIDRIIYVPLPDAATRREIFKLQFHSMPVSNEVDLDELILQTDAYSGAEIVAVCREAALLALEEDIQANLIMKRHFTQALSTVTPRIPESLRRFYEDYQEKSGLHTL
# UniProt Q8IUR0, whole entry: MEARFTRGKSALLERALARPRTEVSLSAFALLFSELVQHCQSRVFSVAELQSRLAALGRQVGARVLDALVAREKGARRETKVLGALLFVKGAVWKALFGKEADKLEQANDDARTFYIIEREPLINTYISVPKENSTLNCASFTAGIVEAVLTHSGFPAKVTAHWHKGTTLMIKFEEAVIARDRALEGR
# UniProt Q8IU85: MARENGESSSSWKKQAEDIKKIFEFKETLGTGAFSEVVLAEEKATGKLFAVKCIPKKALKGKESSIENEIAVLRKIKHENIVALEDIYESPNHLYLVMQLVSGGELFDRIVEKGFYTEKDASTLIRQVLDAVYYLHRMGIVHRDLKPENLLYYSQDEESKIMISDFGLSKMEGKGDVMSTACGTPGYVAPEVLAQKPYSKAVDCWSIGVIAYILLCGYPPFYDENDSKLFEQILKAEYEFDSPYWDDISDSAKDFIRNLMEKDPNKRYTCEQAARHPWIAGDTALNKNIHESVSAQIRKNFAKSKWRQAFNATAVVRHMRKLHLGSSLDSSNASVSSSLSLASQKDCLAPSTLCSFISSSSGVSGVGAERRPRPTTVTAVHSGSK
# UniProt Q8IWB7: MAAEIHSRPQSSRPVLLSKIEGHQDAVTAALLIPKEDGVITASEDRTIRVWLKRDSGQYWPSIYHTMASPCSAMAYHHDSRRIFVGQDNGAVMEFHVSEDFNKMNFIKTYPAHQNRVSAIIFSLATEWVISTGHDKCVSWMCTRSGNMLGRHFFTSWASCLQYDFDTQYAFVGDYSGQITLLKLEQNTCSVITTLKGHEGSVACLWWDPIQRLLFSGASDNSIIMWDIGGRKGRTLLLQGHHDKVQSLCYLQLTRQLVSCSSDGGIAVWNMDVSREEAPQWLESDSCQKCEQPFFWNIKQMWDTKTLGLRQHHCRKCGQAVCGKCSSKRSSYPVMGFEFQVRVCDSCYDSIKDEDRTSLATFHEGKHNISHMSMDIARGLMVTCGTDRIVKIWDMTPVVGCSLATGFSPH
# UniProt Q86X95: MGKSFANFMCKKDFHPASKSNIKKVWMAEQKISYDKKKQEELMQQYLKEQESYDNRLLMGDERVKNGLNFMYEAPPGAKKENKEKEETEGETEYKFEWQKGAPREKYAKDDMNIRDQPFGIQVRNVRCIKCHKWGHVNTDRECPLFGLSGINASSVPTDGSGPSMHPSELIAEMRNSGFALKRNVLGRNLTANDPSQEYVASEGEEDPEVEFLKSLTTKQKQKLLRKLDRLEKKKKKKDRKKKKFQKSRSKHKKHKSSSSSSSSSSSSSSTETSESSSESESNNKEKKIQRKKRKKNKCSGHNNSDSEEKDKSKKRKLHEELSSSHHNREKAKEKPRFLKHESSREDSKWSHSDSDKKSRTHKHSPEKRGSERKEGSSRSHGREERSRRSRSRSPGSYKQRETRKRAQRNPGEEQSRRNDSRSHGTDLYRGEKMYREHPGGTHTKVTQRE
# UniProt Q8N668, whole entry: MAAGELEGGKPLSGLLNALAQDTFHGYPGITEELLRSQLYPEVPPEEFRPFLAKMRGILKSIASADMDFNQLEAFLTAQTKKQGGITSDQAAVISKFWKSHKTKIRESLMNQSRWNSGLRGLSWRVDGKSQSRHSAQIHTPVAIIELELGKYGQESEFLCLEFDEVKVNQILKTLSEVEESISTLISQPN
# UniProt Q86W50: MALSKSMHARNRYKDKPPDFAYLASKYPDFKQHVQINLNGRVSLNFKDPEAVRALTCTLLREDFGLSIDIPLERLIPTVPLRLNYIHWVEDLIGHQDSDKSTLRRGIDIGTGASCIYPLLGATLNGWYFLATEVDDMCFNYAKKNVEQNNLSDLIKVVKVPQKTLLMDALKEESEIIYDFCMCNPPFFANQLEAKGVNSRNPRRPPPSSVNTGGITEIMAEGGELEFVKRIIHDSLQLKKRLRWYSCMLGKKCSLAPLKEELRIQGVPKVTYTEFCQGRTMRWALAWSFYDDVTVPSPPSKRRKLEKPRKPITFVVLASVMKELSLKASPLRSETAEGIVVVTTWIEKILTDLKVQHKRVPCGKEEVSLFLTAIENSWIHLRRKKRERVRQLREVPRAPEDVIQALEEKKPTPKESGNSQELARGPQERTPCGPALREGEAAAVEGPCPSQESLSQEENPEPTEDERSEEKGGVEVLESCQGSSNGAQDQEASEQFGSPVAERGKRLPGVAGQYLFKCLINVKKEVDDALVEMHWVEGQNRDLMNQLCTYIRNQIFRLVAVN
# UniProt Q8N999, whole entry: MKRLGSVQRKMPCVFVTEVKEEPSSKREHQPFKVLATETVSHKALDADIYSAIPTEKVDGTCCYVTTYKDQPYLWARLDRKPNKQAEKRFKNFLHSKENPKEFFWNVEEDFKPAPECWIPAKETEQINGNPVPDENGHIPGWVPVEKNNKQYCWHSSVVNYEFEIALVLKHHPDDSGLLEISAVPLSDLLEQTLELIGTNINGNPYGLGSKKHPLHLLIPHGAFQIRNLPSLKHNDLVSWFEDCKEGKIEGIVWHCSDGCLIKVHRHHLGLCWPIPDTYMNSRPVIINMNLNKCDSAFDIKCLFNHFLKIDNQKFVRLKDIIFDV
# UniProt Q8N806: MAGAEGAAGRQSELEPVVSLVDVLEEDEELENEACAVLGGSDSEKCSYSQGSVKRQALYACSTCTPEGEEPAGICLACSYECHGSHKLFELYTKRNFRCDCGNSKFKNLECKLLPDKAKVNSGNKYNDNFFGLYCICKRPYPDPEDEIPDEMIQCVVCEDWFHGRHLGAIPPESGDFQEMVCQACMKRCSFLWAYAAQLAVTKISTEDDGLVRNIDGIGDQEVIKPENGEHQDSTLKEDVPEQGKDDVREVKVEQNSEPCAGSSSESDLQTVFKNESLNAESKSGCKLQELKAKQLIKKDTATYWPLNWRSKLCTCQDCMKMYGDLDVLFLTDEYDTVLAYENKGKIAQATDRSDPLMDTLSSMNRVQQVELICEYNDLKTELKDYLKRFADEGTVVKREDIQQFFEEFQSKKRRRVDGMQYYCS
# UniProt Q8IX90, whole entry: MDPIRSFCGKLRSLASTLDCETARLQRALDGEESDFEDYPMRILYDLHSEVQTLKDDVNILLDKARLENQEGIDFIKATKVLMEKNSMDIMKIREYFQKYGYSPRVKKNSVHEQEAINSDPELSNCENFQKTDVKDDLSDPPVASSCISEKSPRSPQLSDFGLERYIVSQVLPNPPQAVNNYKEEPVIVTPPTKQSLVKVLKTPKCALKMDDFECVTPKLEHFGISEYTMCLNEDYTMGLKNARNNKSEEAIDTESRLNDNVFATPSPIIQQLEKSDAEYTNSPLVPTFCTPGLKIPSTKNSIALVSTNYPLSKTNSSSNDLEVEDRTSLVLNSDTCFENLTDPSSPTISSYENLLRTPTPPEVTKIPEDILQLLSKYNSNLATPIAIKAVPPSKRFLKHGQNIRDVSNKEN
# UniProt Q8N183: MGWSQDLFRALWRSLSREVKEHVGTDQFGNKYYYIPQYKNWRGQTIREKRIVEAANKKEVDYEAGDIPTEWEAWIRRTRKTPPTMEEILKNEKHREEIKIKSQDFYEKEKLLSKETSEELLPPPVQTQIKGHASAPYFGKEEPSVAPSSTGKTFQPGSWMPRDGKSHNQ
# ± gives the standard deviation of the averaged measurements. This is a selection; strong and weak results do not stand in their true shares.
# Compound: Nc1ncnc2c1ncn2[C@@H]1O[C@H](COP(=O)(O)OP(=O)(O)NP(=O)(O)O)[C@@H](O)[C@H]1O [adenylyl imidodiphosphate]
# Experiment: NP40-soluble protein abundance relative to vehicle (solubility fold change) (ratio); higher = more soluble protein in presence of AMP-PNP
# Procedure, shortened: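 Eight concentrations, 0.1 to 10 mM, were tested on Jurkat crude lysate for 10 min at room temperature and then 3 min at 37 °C, in three independent experiments. The lysate was solubilised with 0.8% NP40 and benzonase, ultracentrifuged, and the supernatant TMT-labelled for LC-MS/MS. Each value is the fold change against the detergent-processed vehicle in its own replicate, from vsn-normalised intensities.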
Target,NP40-soluble protein abundance (concentration: 1mM),NP40-soluble protein abundance (concentration: 2mM),NP40-soluble protein abundance (concentration: 4mM),NP40-soluble protein abundance (concentration: 6mM),NP40-soluble protein abundance (concentration: 8mM),NP40-soluble protein abundance (concentration: 10mM)
UniProt Q8N9R8 and related entries,1.01 ± 0.028,0.935 ± 0.052,1.02 ± 0.042,0.979 ± 0.039,1.03 ± 0.035,1.01 ± 0.048
UniProt Q8N5Y8 and related entries,1.03 ± 0.03,1.01 ± 0.02,1.02 ± 0.025,0.991 ± 0.038,1.03 ± 0.0023,0.988 ± 0.013
UniProt Q8IZ83 and related entries,0.978 ± 0.029,0.952 ± 0.066,0.951 ± 0.025,0.929 ± 0.066,0.926 ± 0.078,0.933 ± 0.078
UniProt Q86U86 and related entries,1.051 ± 0.009,1.1 ± 0.014,1.15 ± 0.017,1.226 ± 0.008,1.29 ± 0.035,1.37 ± 0.09
UniProt Q8N8K9-2|Q8N8K9-3,0.975 ± 0.01,1.19 ± 0.28,0.9704 ± 0.0049,0.987 ± 0.049,1 ± 0.05,0.989 ± 0.088
MTDH (UniProt Q86UE4),1.13 ± 0.046,1.3 ± 0.16,1.32 ± 0.073,1.46 ± 0.2,1.47 ± 0.17,1.58 ± 0.17
MLKL (UniProt Q8NB16),1.021 ± 0.0029,1.009 ± 0.0058,1.02 ± 0.011,1.01 ± 0.022,1.01 ± 0.019,1.01 ± 0.015
SMYD4 (UniProt Q8IYR2),0.987 ± 0.032,1.01 ± 0.031,0.989 ± 0.031,0.95 ± 0.032,0.943 ± 0.015,0.957 ± 0.026
UniProt Q8NBN3 and related entries,0.979 ± 0.039,1.02 ± 0.096,0.978 ± 0.057,0.982 ± 0.058,0.99 ± 0.045,1.01 ± 0.052
SPATA5 (UniProt Q8NB90),1.04 ± 0.042,1.06 ± 0.13,1.12 ± 0.085,1.16 ± 0.095,1.16 ± 0.096,1.17 ± 0.13
TRAPPC5 (UniProt Q8IUR0),0.946 ± 0.055,0.933 ± 0.043,0.959 ± 0.073,1.187 ± 0.002,1.18 ± 0.043,1.12 ± 0.13
UniProt Q8N3X1 and related entries,1.04 ± 0.042,1.12 ± 0.093,1.21 ± 0.11,1.45 ± 0.15,1.49 ± 0.17,1.58 ± 0.24
ANKRD52 (UniProt Q8NB46),1.04 ± 0.038,1.02 ± 0.013,1.02 ± 0.012,1 ± 0.023,1.01 ± 0.05,1 ± 0.021
UniProt Q8IU85 and related entries,0.994 ± 0.025,0.976 ± 0.051,0.977 ± 0.069,0.921 ± 0.027,0.948 ± 0.016,0.933 ± 0.042
FAM126B (UniProt Q8IXS8),0.998 ± 0.043,1.01 ± 0.023,0.994 ± 0.024,1.01 ± 0.022,1.01 ± 0.031,1.02 ± 0.017
WDFY1 (UniProt Q8IWB7),1.01 ± 0.052,0.959 ± 0.023,0.99 ± 0.054,0.988 ± 0.029,1.04 ± 0.037,0.992 ± 0.043
UniProt Q86X95,0.975 ± 0.021,1.04 ± 0.076,0.998 ± 0.082,0.925 ± 0.032,0.936 ± 0.04,0.937 ± 0.048
TTC5 (UniProt Q8N0Z6),1.01 ± 0.071,0.971 ± 0.04,0.998 ± 0.029,0.991 ± 0.073,1.03 ± 0.051,1.01 ± 0.014

# Reformatted: results already given.
Target	NP40-soluble protein abundance (concentration: 1mM)	NP40-soluble protein abundance (concentration: 2mM)	NP40-soluble protein abundance (concentration: 4mM)	NP40-soluble protein abundance (concentration: 6mM)	NP40-soluble protein abundance (concentration: 8mM)	NP40-soluble protein abundance (concentration: 10mM)
UniProt Q86U86 and related entries	1.051 ± 0.009	1.1 ± 0.014	1.15 ± 0.017	1.226 ± 0.008	1.29 ± 0.035	1.37 ± 0.09
UniProt Q8NBN3 and related entries	0.979 ± 0.039	1.02 ± 0.096	0.978 ± 0.057	0.982 ± 0.058	0.99 ± 0.045	1.01 ± 0.052

# Further records follow:

Target,NP40-soluble protein abundance (concentration: 1mM),NP40-soluble protein abundance (concentration: 2mM),NP40-soluble protein abundance (concentration: 4mM),NP40-soluble protein abundance (concentration: 6mM),NP40-soluble protein abundance (concentration: 8mM),NP40-soluble protein abundance (concentration: 10mM)
IRF2BP1 (UniProt Q8IU81),0.967 ± 0.014,1 ± 0.042,1 ± 0.018,0.979 ± 0.027,0.977 ± 0.013,0.989 ± 0.029
COMMD1 (UniProt Q8N668),0.932 ± 0.038,0.956 ± 0.045,0.883 ± 0.032,0.957 ± 0.026,0.91 ± 0.031,0.905 ± 0.052
UniProt Q8IVS2,1.02 ± 0.046,1.01 ± 0.07,0.999 ± 0.012,1.03 ± 0.032,1.03 ± 0.018,1.03 ± 0.051
UniProt Q8IXQ5 and related entries,0.984 ± 0.042,0.979 ± 0.018,0.974 ± 0.029,0.9744 ± 0.0094,0.983 ± 0.044,0.9769 ± 0.0044
UniProt Q8IWZ8,1 ± 0.033,1.04 ± 0.098,1 ± 0.087,0.999 ± 0.025,1 ± 0.04,1.03 ± 0.036
UniProt Q8N983-4|B1AL05 and related entries,0.926 ± 0.099,0.956 ± 0.1,0.915 ± 0.058,0.856 ± 0.13,0.855 ± 0.12,0.815 ± 0.14
ZC3H7A (UniProt Q8IWR0),1.008 ± 0.0064,1.02 ± 0.036,1.11 ± 0.029,1.12 ± 0.025,1.12 ± 0.044,1.16 ± 0.049
UniProt Q86VP1-2|Q86VP1-4|B8ZZD4,0.977 ± 0.039,1.01 ± 0.026,0.963 ± 0.024,0.935 ± 0.038,0.925 ± 0.033,0.936 ± 0.031
TMEM173 (UniProt Q86WV6),1.02 ± 0.049,1.02 ± 0.049,0.986 ± 0.073,0.9747 ± 0.0089,0.964 ± 0.037,0.962 ± 0.064
UniProt Q86W50,0.984 ± 0.057,0.948 ± 0.052,1.02 ± 0.052,1.01 ± 0.039,1.01 ± 0.075,0.965 ± 0.091
UniProt Q8IZ21 and related entries,0.969 ± 0.046,1.02 ± 0.017,0.98 ± 0.038,0.962 ± 0.072,0.967 ± 0.032,0.986 ± 0.081
C12orf29 (UniProt Q8N999),0.995 ± 0.05,0.965 ± 0.04,0.967 ± 0.028,0.983 ± 0.028,0.969 ± 0.024,0.97 ± 0.028
UBR7 (UniProt Q8N806),1.005 ± 0.0053,1 ± 0.015,0.995 ± 0.026,0.997 ± 0.037,1 ± 0.037,0.985 ± 0.041
UniProt Q8IX90,1.04 ± 0.0094,1.06 ± 0.066,1.04 ± 0.017,0.987 ± 0.018,0.978 ± 0.022,0.995 ± 0.028
ITPRIP (UniProt Q8IWB1),0.983 ± 0.019,0.9835 ± 0.0071,0.99259 ± 0.00082,0.993 ± 0.011,0.982 ± 0.048,0.977 ± 0.04
NDUFAF2 (UniProt Q8N183),1.03 ± 0.095,1.03 ± 0.076,0.99 ± 0.11,0.932 ± 0.065,0.94 ± 0.06,0.897 ± 0.12
EHBP1L1 (UniProt Q8N3D4),1.06 ± 0.028,1.11 ± 0.099,1.07 ± 0.11,1.02 ± 0.034,1.01 ± 0.059,1.01 ± 0.08
